From patent US20190352420A1 (Boehringer Ingelheim, published 2019)
These are yes or no findings as the source states them, for the method shown. Some binding calls cover weakened binding; strength is not graded here.

Experiments:
mouse CD73 = molecular target: T1, mouse CD73 (mouse, UniProt Q61503 29-551, limits assumed); assay: SPR
T1 construct: also called murine CD73
T1 sequence (looked up): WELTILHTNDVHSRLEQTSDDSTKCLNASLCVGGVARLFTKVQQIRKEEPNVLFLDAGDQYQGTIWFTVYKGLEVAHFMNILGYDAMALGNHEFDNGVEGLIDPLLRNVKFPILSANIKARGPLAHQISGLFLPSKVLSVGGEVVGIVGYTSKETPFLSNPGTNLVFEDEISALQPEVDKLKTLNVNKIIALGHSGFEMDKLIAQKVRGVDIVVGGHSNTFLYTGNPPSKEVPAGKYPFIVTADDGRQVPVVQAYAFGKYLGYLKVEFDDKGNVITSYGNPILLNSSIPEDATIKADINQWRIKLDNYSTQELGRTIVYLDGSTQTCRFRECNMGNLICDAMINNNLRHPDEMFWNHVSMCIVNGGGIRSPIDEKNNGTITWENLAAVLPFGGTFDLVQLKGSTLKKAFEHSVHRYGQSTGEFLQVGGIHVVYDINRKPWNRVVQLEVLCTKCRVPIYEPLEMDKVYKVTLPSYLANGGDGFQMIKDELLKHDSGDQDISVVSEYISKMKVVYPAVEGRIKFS

[1] = molecular target: T2, CD73 protein construct for crystallography (human) (UniProt P21589); assay: complex formation, gel filtration and co-crystallisation
T2 sequence: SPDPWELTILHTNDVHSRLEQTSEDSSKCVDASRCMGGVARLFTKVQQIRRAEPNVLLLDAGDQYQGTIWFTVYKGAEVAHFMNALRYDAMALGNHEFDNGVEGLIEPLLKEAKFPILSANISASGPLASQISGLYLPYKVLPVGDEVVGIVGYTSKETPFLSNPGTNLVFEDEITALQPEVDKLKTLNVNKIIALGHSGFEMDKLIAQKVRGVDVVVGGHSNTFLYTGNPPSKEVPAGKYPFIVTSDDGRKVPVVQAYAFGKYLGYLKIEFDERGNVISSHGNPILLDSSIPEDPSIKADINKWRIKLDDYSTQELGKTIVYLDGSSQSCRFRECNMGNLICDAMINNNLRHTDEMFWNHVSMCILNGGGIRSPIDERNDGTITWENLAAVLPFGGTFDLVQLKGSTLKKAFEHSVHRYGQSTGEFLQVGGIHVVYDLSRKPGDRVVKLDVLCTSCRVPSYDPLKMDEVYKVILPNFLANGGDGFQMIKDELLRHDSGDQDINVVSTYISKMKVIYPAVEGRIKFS

B1: C2 (antibody, human IgG1, kappa, L234A L235A, V domains shown)
VH: QVQLVQSGAEVKKPGDSVKVSCKASGYTFTTYWMHWVRQAPGQGLEWMGAIYPGLSDTTYSQKFKGKVTMTRDTSTSTVYMKLSSLRSEDTAVYYCARLLDYAMDYWGQGTLVTVSS
VL: DIQMTQSPSSLSASVGDRVTITCRASQDIRSYLNWHQQKPGKAPKLLIWYTSRLHSGVPSRFSGSGSGTDYTLTISSLEPEDFATYFCQQGETLPWTFGQGTKLEIKR
notes: Humanized monoclonal antibody; also called anti-CD73 antibody C2
Q: Which binding (mouse CD73) does the source give for B1 here?
A: Its binding is “binds”.

B2: C1 (antibody, human IgG1, kappa, L234A L235A, V domains shown)
VH: QVQLVQSGAEVKKPGDSVKVSCKASGYTFTTYWMHWVRQAPGQGLEWMGAIYPGFSDTTYSQKFKGKVTMTRDTSTSTVYMKLSSLRSEDTAVYYCARLLDYAMDYWGQGTLVTVSS
VL: DIQMTQSPSSLSASVGDRVTITCRASQDIRSYLNWHQQKPGKAPKLLIWYTSRLHSGVPSRFSGSGSGTDYTLTISSLEPEDFATYFCQQGETLPWTFGQGTKLEIKR
notes: Humanized monoclonal antibody; also called anti-CD73 antibody C1
Q: For B2, which binding (mouse CD73) is on record?
A: Its binding is “binds”.

B3: C3 (antibody, human IgG1, kappa, L234A L235A, V domains shown)
VH: QVQLVQSGAEVKKPGDSVKVSCKASGYTFTTYWMHWVRQAPGQGLEWMGAIYPGLSDTTYSQKFKGKVTMTRDTSTSTVYMKLSSLRSEDTAVYYCARLLDYAMDYWGQGTLVTVSS
VL: DIQMTQSPSSLSASVGDRVTITCRASQDIRSYLNWHQQKPGKAPKLLIWYTSRLHSGVPSRFSGSGSGTDYTLTISSLQPEDFATYFCQQGETLPWTFGQGTKLEIKR
notes: Humanized monoclonal antibody; also called anti-CD73 antibody C3
Q: B3 was tested. Which binding (mouse CD73) did it give?
A: The binding was “binds”.

B4: C4 (antibody, human IgG1, kappa, L234A L235A, V domains shown)
VH: QVQLVQSGAEVKKPGDSVKVSCKASGYTFTTYWMHWVRQAPGQGLEWMGAIYPGLSDTTYNQKFKGKVTMTRDTSTSTVYMKLSSLRSEDTAVYYCARLLDYAMDYWGQGTLVTVSS
VL: DIQMTQSPSSLSASVGDRVTITCRASQDIRSYLNWHQQKPGKAPKLLIWYTSRLHSGVPSRFSGSGSGTDYTLTISSLQPEDFATYFCQQGETLPWTFGQGTKLEIKR
notes: Humanized monoclonal antibody; also called C04; inventive anti-CD73 antibody C4
Q: B4 was tested. Which binding (mouse CD73) did it give?
A: The binding was “binds”.

B5: C5 (antibody, human IgG1, kappa, L234A L235A, V domains shown)
VH: QVQLVQSGAEVKKPGDSVKVSCKASGYTFTTYWMHWVRQAPGQGLEWMGAIYPGNSDTTYNQKFKGKVTMTRDTSTSTVYMKLSSLRSEDTAVYYCARLLDYAMDYWGQGTLVTVSS
VL: DIQMTQSPSSLSASVGDRVTITCRASQDIRSYLNWHQQKPGKAPKLLIWYTSRLHSGVPSRFSGSGSGTDYTLTISSLEPEDFATYFCQQGETLPWTFGQGTKLEIKR
notes: Humanized monoclonal antibody; also called anti-CD73 antibody C5
Q: With B5 as the binder, how does the binding (mouse CD73) read?
A: Its binding is “binds”.

B6: C6 (antibody, human IgG1, kappa, L234A L235A, V domains shown)
VH: QVQLVQSGAEVKKPGDSVKVSCKASGYTFTTYWMHWVRQAPGQGLEWMGAIYPGNSDTTYNQKFKGKVTMTRDTSTSTVYMKLSSLRSEDTAVYYCARLLDYAMDYWGQGTLVTVSS
VL: DIQMTQSPSSLSASVGDRVTITCRASQDIRNYLNWHQQKPGKAPKLLIWYTSRLHSGVPSRFSGSGSGTDYTLTISSLQPEDFATYFCQQGNTLPWTFGQGTKLEIKR
notes: Humanized monoclonal antibody; also called anti-CD73 antibody C6
Q: For B6, which binding (mouse CD73) is on record?
A: The binding was “binds”.

B7: Fab fragment of an anti-CD73 antibody according to the invention (Fab, V domains shown)
VH: QVQLVQSGAEVKKPGDSVKVSCKASGYTFTTYWMHWVRQAPGQGLEWMGAIYPGLSDTTYNQKFKGKVTMTRDTSTSTVYMKLSSLRSEDTAVYYCARLLDYAMDYWGQGTLVTVSS
VL: DIQMTQSPSSLSASVGDRVTITCRASQDIRSYLNWHQQKPGKAPKLLIWYTSRLHSGVPSRFSGSGSGTDYTLTISSLQPEDFATYFCQQGETLPWTFGQGTKLEIK
Q: For B7, which binding [1] is on record?
A: The binding was “binds”.
